The record followed here is article PMC11140114.

The chains behind the UniProt entries cited, without tags or fusion partners.
UniProt O00429: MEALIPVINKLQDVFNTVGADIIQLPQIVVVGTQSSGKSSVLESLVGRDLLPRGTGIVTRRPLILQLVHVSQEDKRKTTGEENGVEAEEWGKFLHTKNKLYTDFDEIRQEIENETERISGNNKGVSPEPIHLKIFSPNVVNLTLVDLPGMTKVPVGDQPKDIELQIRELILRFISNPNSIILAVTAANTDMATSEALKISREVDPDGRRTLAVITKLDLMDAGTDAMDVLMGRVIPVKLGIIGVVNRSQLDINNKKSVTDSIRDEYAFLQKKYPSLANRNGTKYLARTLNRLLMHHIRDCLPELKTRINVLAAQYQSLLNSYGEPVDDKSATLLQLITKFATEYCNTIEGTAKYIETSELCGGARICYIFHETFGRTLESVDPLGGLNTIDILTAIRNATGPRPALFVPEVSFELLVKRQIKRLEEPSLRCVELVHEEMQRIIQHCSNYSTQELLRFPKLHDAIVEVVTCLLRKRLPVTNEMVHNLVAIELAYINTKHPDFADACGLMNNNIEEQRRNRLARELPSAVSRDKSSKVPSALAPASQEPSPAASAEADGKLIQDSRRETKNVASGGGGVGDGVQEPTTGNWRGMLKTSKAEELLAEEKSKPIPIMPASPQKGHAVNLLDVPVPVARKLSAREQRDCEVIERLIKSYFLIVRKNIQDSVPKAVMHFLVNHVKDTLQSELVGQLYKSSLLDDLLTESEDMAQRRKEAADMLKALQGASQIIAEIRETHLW
UniProt Q9UBN7: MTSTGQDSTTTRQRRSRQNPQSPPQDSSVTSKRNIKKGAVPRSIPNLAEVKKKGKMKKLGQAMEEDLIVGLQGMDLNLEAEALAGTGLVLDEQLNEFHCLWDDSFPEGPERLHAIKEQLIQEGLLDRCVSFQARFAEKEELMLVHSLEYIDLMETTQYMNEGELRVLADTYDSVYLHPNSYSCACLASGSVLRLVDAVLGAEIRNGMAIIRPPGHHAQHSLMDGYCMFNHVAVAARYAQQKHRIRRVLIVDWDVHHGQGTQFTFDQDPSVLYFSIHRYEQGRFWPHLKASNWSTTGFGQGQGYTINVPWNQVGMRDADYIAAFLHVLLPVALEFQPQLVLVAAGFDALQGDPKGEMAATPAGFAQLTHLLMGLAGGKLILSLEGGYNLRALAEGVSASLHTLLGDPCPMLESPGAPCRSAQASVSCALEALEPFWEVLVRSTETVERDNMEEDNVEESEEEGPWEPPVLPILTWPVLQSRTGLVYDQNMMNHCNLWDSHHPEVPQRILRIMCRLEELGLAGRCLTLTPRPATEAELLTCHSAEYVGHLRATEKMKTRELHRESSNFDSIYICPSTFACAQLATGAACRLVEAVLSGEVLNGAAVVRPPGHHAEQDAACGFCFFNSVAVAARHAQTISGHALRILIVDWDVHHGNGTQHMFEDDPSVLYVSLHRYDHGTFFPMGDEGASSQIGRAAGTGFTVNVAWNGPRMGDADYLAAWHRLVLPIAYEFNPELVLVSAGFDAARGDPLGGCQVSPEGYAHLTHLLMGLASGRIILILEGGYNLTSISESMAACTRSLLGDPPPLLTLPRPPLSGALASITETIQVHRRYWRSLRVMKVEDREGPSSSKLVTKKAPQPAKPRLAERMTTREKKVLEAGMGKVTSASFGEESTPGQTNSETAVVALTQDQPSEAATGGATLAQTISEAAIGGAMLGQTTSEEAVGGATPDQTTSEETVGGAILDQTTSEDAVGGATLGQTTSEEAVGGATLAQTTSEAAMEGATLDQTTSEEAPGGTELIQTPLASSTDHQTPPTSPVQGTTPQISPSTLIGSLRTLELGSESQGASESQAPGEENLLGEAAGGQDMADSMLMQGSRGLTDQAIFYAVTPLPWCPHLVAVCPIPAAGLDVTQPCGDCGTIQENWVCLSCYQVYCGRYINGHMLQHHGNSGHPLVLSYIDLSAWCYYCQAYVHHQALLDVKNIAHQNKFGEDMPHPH

In this experiment the target is endogenous Drp1 (human (endogenous in HEK293, HeLa, U2OS)) (UniProt O00429). Briefly: affinity purification with mass spectrometry; proteins enriched together with endogenous Drp1 on the D7 and D63 nanotraps against GFP-Trap, soluble protein fraction of HEK293 cells; multi-volcano analysis, class A FDR 0.01, class B FDR 0.05.

No constants are given. Whether binding was seen depends on the method and setting. Binding seen in cells or lysates may run through a third protein. Here binding means that the protein was enriched with, or labelled near, the bait; the list need not be complete.

Consider “Histone deacetylase 6 (from UniProt Q9UBN7 1-1215) (enzyme)”, for which the binding result was “binds”.
